This is one part of the list. Many values rest on one well or one pass, so single values are uncertain.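 The apoptosis fraction was the count of cleaved-PARP antibody-stained nuclei relative to all DNA-stained nuclei, imaged in 1,536-well plates. Screening doses were set so most cells survived, and baseline and induced cleaved-PARP levels vary greatly across cell lines.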
How the values were obtained:
Test in all cases: cleaved PARP positive nuclei fraction relative to DMSO control; melanoma cells; higher = more apoptosis
Details in all cases: library dose: low library concentration; 72 h
[1] = system: CBRC034 (line from a melanoma biopsy)
[2] = system: COLO792
[3] = system: COLO800
[4] = system: COLO829
[5] = system: G361
[6] = system: IPC-298
[7] = system: IST-MEL1
[8] = system: LB2518-MEL
[9] = system: LOXIMVI
[10] = system: MZ2-MEL
[11] = system: MeWo
[12] = system: RPMI7951
[13] = system: RVH-421
[14] = system: SkMel28
[15] = system: SkMel30
[16] = system: SkMel5
[17] = system: UACC257
[18] = system: UACC62

SMILES | cleaved PARP positive nuclei fraction [1] [%] | cleaved PARP positive nuclei fraction [2] [%] | cleaved PARP positive nuclei fraction [3] [%] | cleaved PARP positive nuclei fraction [4] [%] | cleaved PARP positive nuclei fraction [5] [%] | cleaved PARP positive nuclei fraction [6] [%] | cleaved PARP positive nuclei fraction [7] [%] | cleaved PARP positive nuclei fraction [8] [%] | cleaved PARP positive nuclei fraction [9] [%] | cleaved PARP positive nuclei fraction [10] [%] | cleaved PARP positive nuclei fraction [11] [%] | cleaved PARP positive nuclei fraction [12] [%] | cleaved PARP positive nuclei fraction [13] [%] | cleaved PARP positive nuclei fraction [14] [%] | cleaved PARP positive nuclei fraction [15] [%] | cleaved PARP positive nuclei fraction [16] [%] | cleaved PARP positive nuclei fraction [17] [%] | cleaved PARP positive nuclei fraction [18] [%]
COC(=O)c1sccc1S(=O)(=O)Nc1ccc(Nc2ccccc2)cc1OC + c1cc(-c2cnn3cc(-c4ccc(OCCN5CCCCC5)cc4)cnc23)ccn1 [Dorsomorphin] (first compound 1 µM, partner dose 0.4 µM) | 152 | 129 | 79.6 | 87.5 | 198 | 39.3 | 41.7 | 156 | 63.2 | 57.1 | 102 | 84.1 | 68.8 | 164 | 14 | 102 | 92.2 | 48.4
CN(NC(=O)CC(=O)NN(C)C(=S)c1ccccc1)C(=S)c1ccccc1 + COc1ccc(-c2ccc3c(N4CCOCC4)nc(N4C[C@@H](C)O[C@@H](C)C4)nc3n2)cc1CO [KU0063794] (first compound 0.006 µM, partner dose 0.02 µM) | 95.9 | 176 | 307 | 293 | 138 | 89.5 | 48.9 | 96.9 | 27.4 | 92 | 101 | 40.6 | 237 | 96.1 | 365 | 128 | 87.2 | 190
COc1ccc2c(c1)CCC1C2CCC2(C)C(NCCCCCCN3C(=O)C=CC3=O)CCC12 (stereo not given) + COc1cc2ncnc(Nc3ccc(Oc4ccccc4)cc3)c2cc1OC [SrcI1] (first compound 0.4 µM, partner dose 2 µM) | 114 | 116 | 39.4 | 51.6 | 66.8 | 58.3 | 44 | 146 | 95.2 | 73.4 | 116 | 59.2 | 76.9 | 154 | 50 | 27.3 | 139 | 71
COc1cc2c(Oc3ccc4[nH]c(C)cc4c3F)ncnc2cc1OCCCN1CCCC1 [cediranib] + Oc1nc(-c2ccc(C(F)(F)F)cc2)nc2c1CSCC2 [XAV939] (first compound 0.4 µM, partner dose 2 µM) | 84.5 | 295 | 109 | 122 | 57.1 | 76.7 | 56.1 | 78.7 | 33.1 | 78.9 | 27 | 91.4 | 91.4 | 91.8 | 27.5 | 37.4 | 104 | 39.9
N#Cc1c(O)c2c(-c3ccc(-c4ccccc4O)cc3)csc2[nH]c1=O + Cc1cc([N+](=O)[O-])ccc1NS(=O)(=O)c1cc(Cl)ccc1Cl [FH535] (first compound 2 µM, partner dose 1 µM) | 373 | 88.2 | 115 | 110 | 40.9 | 41.2 | 51.8 | 43.1 | 35.5 | 117 | 169 | 38.7 | 89.5 | 124 | 41 | 62.1 | 130 | 58.5
Oc1cc(-c2nc(-c3ccccc3)[nH]c2-c2ccncc2)ccc1Cl + CC(C)CCN1c2nc(Nc3cc(F)c(O)c(F)c3)ncc2N(C)C(=O)C1C [BID1870] (first compound 0.2 µM, partner dose 0.2 µM) | 90.5 | 94.6 | 102 | 90.9 | 112 | 31.2 | 126 | 64.7 | 57.2 | 48.1 | 106 | 90.1 | 77.2 | 203 | 198 | 65.1 | 59.9 | 173
NCC(=O)Nc1ccc(-n2nc(C(F)(F)F)cc2-c2ccc3c(ccc4ccccc43)c2)cc1 + COc1cc2ncnc(Nc3ccc(Oc4ccccc4)cc3)c2cc1OC [SrcI1] (first compound 1 µM, partner dose 2 µM) | 92.5 | 96.9 | 93.5 | 215 | 231 | 238 | 51.3 | 68.4 | 57.5 | 144 | 134 | 69.5 | 58.1 | 167 | 865 | 33.9 | 58.8 | 62.6
COC(=O)c1sccc1S(=O)(=O)Nc1ccc(Nc2ccccc2)cc1OC + COc1ccc(COc2ccc(Cc3cnc(N)nc3N)cc2OC)cc1 [GW2580] (first compound 1 µM, partner dose 1 µM) | 87.8 | 140 | 189 | 103 | 129 | 167 | 41.5 | 79.5 | 59.9 | 108 | 216 | 83.3 | 86.4 | 49.2 | 19.2 | 136 | 97.7 | 27
O=C(O)C(=O)Nc1sc2c(c1C(=O)O)CCNC2 + CCCCCCCCCCCC1=C(O)C(=O)C=C(O)C1=O [Embelin] (first compound 1.66667 µM, partner dose 1.2 µM) | 83.5 | 99.6 | 90.2 | 95.1 | 58.6 | 106 | 52.4 | 159 | 36.3 | – | 100 | 72.1 | 44.2 | 79.2 | 159 | 99.4 | 81.9 | 53.5
COc1ccc(COc2ccc(Cc3cnc(N)nc3N)cc2OC)cc1 + CC(C)CCN1c2nc(Nc3cc(F)c(O)c(F)c3)ncc2N(C)C(=O)C1C [BID1870] (first compound 1 µM, partner dose 0.2 µM) | 39.1 | 14.5 | 131 | 182 | 119 | 82.8 | 39.3 | 98.7 | 28.8 | – | 46 | 71.5 | 20.4 | 88.1 | 92.2 | 38.2 | 76.9 | 48.4
CCc1ccc(CCOc2ccc(CC3SC(=O)NC3=O)cc2)nc1 (stereo not given) [pioglitazone] + Oc1cc(-c2nc(-c3ccccc3)[nH]c2-c2ccncc2)ccc1Cl [L779450] (first compound 2 µM, partner dose 0.2 µM) | 47.8 | 66.4 | 152 | 77.9 | 129 | 55 | 43.2 | 108 | 102 | 76.6 | 36.6 | 243 | 103 | 190 | 139 | 148 | 285 | 358
CCc1ccc(CCOc2ccc(CC3SC(=O)NC3=O)cc2)nc1 (stereo not given) [pioglitazone] + O=S(=O)(c1ccccc1)N(CC(F)(F)F)c1ccc(C(O)(C(F)(F)F)C(F)(F)F)cc1 [T0901317] (first compound 2 µM, partner dose 1.4 µM) | 120 | 79.2 | 85.8 | 93.2 | 97.2 | 59.6 | 87 | 84.3 | 26.4 | 118 | 53.5 | 43.4 | 27.8 | 255 | 57.4 | 38.2 | 265 | 49
COc1cc2c(Oc3ccc4[nH]c(C)cc4c3F)ncnc2cc1OCCCN1CCCC1 [cediranib] + O=C(Nc1ccccc1)c1cc([N+](=O)[O-])ccc1Cl [GW9662] (first compound 0.4 µM, partner dose 2 µM) | 115 | 169 | 142 | 131 | 23.4 | 128 | 88.8 | 153 | 12.2 | 97.6 | 38.6 | 84 | 65.3 | 85.1 | 160 | 109 | 104 | 84.8
NCC(=O)Nc1ccc(-n2nc(C(F)(F)F)cc2-c2ccc3c(ccc4ccccc43)c2)cc1 + c1cc(-c2cnn3cc(-c4ccc(OCCN5CCCCC5)cc4)cnc23)ccn1 [Dorsomorphin] (first compound 1 µM, partner dose 0.4 µM) | 92.9 | 180 | 125 | 92 | 123 | 150 | 60.8 | 70.1 | 38.2 | 94.3 | 95 | 235 | 69.5 | 104 | 117 | 124 | 61.9 | 218

Only cleaved PARP positive nuclei fraction [4] [%] (2 entries from above):
SMILES	cleaved PARP positive nuclei fraction [4] [%]
COc1cc2c(Oc3ccc4[nH]c(C)cc4c3F)ncnc2cc1OCCCN1CCCC1 [cediranib] + Oc1nc(-c2ccc(C(F)(F)F)cc2)nc2c1CSCC2 [XAV939] (first compound 0.4 µM, partner dose 2 µM)	122
Oc1cc(-c2nc(-c3ccccc3)[nH]c2-c2ccncc2)ccc1Cl + CC(C)CCN1c2nc(Nc3cc(F)c(O)c(F)c3)ncc2N(C)C(=O)C1C [BID1870] (first compound 0.2 µM, partner dose 0.2 µM)	90.9
